Results: PubChem BioAssay AID588590 (National Center for Advancing Translational Sciences (NCATS), 2011)
Hit rate of the full screen: of about 390,000 compounds, about 4,000 (1%) were called active. Inconclusive means that the source gave no clear call. Such entries were picked first, then a sample of the others. Calls follow the shape of the dose curve; as a rule, active = well fitted inhibition curve with a large enough effect; inconclusive = small, poorly fitted or top-dose-only effect, or another doubt; inactive = no such curve, though single readings can be large or run the other way. Potencies of inconclusive entries are doubtful fits and often do not repeat.

Amino acid sequences for entries named in this document (tags omitted). A change or cut given only in a name is not applied to a line headed by its entry.
UniProt Q9UNA4: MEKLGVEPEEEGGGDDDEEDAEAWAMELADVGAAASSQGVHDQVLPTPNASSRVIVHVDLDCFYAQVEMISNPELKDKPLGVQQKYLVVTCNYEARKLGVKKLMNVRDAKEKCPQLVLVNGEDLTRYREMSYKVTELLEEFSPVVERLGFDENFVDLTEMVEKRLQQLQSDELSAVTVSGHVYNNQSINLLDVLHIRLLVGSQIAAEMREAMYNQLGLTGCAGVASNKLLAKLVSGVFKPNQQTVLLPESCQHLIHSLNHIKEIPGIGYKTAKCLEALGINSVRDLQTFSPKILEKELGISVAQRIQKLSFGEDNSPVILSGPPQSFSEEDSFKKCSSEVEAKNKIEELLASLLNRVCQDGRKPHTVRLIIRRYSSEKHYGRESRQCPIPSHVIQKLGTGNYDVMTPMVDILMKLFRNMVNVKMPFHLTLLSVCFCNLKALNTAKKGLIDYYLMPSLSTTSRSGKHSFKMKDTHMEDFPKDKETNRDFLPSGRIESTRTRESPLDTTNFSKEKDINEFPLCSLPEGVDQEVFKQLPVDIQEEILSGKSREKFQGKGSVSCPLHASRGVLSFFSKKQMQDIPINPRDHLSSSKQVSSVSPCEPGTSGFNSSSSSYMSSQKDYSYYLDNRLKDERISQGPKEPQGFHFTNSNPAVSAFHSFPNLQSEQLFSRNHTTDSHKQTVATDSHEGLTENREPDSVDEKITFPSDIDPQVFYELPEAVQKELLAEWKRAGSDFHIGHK

Biological target: DNA polymerase iota (Homo sapiens) (UniProt Q9UNA4)
Experiment: qHTS for Inhibitors of Polymerase Iota
Settings: Pol iota fluorescent replication assay, 10 min; series mostly up to 115 µM; activity, negative = inhibition: at the top concentration
In short: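 Fluorescent replication assay read twice, at 0 min and 10 min after adding 50 nM (final) substrate. Enzyme (10 nM) and compounds were first incubated 15 min at room temperature; enzyme-free buffer wells were negative controls.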
Potency is read from the fitted curve at half-maximal effect.

Structure (SMILES) | activity, negative = inhibition | Potency
O=C(NCC(c1ccc(F)cc1)N1CCOCC1)c1ccc([N+](=O)[O-])o1 (stereo not drawn) | inactive: -13.3% | 
C#CCOCCOCCOCCNc1nc(N2CCN(C(=O)[C@H]([C@@H](C)CC)n3cc(CCCCN)nn3)CC2)nc(N2CCN(C(=O)[C@H](CCCCN)n3cc(CC(C)O)nn3)CC2)n1 (stereo partly drawn) |  | inconclusive: 12.6 µM [inhibitor, partial curve, poor fit]
CCn1c(=O)c2cc(C(=O)N(C)c3cc(C)ccc3OC)sc2c2ccccc21 |  | inconclusive: 0.708 µM [inhibitor, full curve, poor fit]
CSc1ccccc1NC(=O)c1noc2c1CCC2 |  | active: 20 µM
Cc1nc(NCc2ccco2)c2c3c(sc2n1)CCC3 |  | inconclusive: 15.8 µM [inhibitor, full curve]
COc1cc2[nH]c3c(N4CCN(c5ccccn5)CC4)ncnc3c2cc1OC |  | inconclusive: 14.1 µM [inhibitor, partial curve, poor fit]
Nc1nc(N)c2[nH]c(=S)[nH]c2n1 |  | inconclusive: 31.6 µM [inhibitor, single point]
Cc1ccc(-c2nn(C)c(=O)c3ccccc23)cc1S(=O)(=O)N1CCCC1 |  | inconclusive: 70.8 µM [inhibitor, partial curve, poor fit]
O=C(COc1ccccc1)Nc1ccc(S(=O)(=O)NCc2ccco2)cc1 |  | inconclusive: 14.1 µM [inhibitor, full curve, poor fit]
OCC1(CCc2ccccc2)CCN(Cc2cccn2-c2cccnc2)CC1 | inactive: -2.07% | 
Cc1cc(C)n2nc(C(=O)OCC(=O)Nc3cc(S(=O)(=O)N4CCOCC4)ccc3Cl)nc2n1 | inactive: 2.36% | 
CC(C)(C)c1ccc(O)c(N=Cc2cccc([N+](=O)[O-])c2)c1 | inactive: 9.58% | 
COc1ccc(OC)c(C2/C(=C(/O)c3ccccc3)C(=O)C(=O)N2Cc2ccco2)c1 (stereo not drawn) | inactive: 60.6% | 
C/C=C\C=C\C(=O)N1CC2(CC(c3cccc(NC(=O)/C(C)=C\C)c3)=NO2)C[C@H]1C(N)=O (stereo partly drawn) |  | inconclusive: 44.7 µM [inhibitor, partial curve, poor fit]
COc1ccc(C)cc1NC(=O)c1nnn(-c2c(C)cccc2C)c1C | inactive: 6.9% | 
O=C(O)c1cc(NCc2ccc3c(c2)OCO3)ccc1N1CCOCC1 |  | inconclusive: 3.16 µM [inhibitor, full curve, poor fit]
COC(=O)c1sc(-c2ccccc2)cc1NC(=O)c1ccccc1 |  | inconclusive: 89.1 µM [inhibitor, single point]
CSc1ncc(CN2CCCC(C(=O)c3ccc(C(C)(C)C)cc3)C2)cn1 (stereo not drawn) |  | inconclusive: 70.8 µM [inhibitor, partial curve]

Part of the list above, set out differently:
Structure (SMILES)	activity, negative = inhibition	Potency
O=C(O)c1cc(NCc2ccc3c(c2)OCO3)ccc1N1CCOCC1		inconclusive: 3.16 µM [inhibitor, full curve, poor fit]
CSc1ncc(CN2CCCC(C(=O)c3ccc(C(C)(C)C)cc3)C2)cn1 (stereo not drawn)		inconclusive: 70.8 µM [inhibitor, partial curve]
